{
  "source": "patent EP0105690A1",
  "about": "“Bleaching compositions” (THE PROCTER & GAMBLE COMPANY, priority 1982, dated 1984)",
  "assay": "Destruction of methylene blue dye in solution, percent transmittance (solution bleaching)",
  "details": "pH about 10.00, 37°C, 30 seconds, compared with m-chloroperoxybenzoic acid alone",
  "data": [
    {"smiles": "O=S(=O)(Cl)c1cccc(S(=O)(=O)Cl)c1", "note": "[1,3-benzenedisulfonyl chloride]", "values": [
      {"measurement": "destruction of the methylene blue dye (change in percent T)", "setting": "6.25 x 10^-5 molar added to m-chloroperoxybenzoic acid 1.25 x 10^-4 molar", "value": "rapidly increases the destruction of the methylene blue dye"},
      {"measurement": "destruction of the methylene blue dye (change in percent T)", "setting": "added to benzoyl peroxide", "value": "rapidly increases the destruction of the methylene blue dye"}
    ]}
  ]
}
